Positions count from the first letter of the chain named. These are yes or no findings as the source states them, for the method shown. Some entries that bind do so weakly or less than the wild type.

The chains behind the UniProt entries cited, without tags or fusion partners. Residues count along the entry.
UniProt P15941, residues 24-1097: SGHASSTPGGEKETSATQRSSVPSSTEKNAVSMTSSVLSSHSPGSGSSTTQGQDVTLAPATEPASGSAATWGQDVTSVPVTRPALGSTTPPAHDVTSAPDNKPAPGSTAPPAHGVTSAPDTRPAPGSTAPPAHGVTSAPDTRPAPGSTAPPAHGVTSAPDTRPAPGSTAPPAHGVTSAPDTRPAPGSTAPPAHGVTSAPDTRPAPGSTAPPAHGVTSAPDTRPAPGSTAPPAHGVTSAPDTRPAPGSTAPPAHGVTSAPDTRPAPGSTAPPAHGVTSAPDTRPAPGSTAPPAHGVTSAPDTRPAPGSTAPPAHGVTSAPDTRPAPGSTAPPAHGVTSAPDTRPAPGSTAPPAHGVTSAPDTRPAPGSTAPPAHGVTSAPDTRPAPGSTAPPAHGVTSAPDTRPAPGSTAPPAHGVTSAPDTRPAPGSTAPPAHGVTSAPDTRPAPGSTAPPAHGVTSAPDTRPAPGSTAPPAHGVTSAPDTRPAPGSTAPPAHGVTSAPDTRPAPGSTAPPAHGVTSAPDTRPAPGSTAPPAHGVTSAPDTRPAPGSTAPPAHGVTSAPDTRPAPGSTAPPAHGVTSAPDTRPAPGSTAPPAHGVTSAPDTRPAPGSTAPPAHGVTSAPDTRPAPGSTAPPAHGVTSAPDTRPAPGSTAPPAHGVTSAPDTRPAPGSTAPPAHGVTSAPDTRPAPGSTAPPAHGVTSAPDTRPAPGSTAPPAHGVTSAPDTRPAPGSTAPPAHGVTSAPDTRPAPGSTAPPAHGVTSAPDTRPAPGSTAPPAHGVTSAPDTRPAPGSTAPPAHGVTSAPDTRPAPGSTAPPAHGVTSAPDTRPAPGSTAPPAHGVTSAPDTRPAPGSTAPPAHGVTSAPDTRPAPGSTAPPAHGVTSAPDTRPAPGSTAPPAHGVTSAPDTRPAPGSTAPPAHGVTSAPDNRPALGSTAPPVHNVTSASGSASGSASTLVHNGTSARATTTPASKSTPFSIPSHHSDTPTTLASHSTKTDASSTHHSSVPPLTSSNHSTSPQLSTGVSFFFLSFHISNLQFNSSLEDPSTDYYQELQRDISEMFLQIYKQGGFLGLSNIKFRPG

In experiment [1] the target is polymorphic epithelial mucin (PEM) of human milk fat globule, affinity-purified on a CTM01 MAb column from pooled human urine or the aqueous component of human milk (human) (UniProt P15941). As to the kind of experiment: direct binding ELISA, PEM-coated microwells, order of binding activity.
The target is the same in experiment [2]. The experiment can be described thus: competition EIA, PEM-coated microwells, biotinylated CTM01 MAb as competitor.

B1: gL1gH2, CDR-grafted CTMO1 antibody (plasmids pAL47, pAL52) (antibody, V domains shown)
VH: QIQLVQSGAEVKKPGSSVKVSCKASGYTFTDYYINWMRQAPGQGLEWIGWIDPGSGNTKYNEKFKGRATLTVDTSTNTAYMELSSLRSEDTAFYFCAREKTTYYYAMDYWGQGTLVTVSS
VL: DIQMTQSPSTLSASVGDRVTITCRSSKSLLHSNGDTFLYWFQQKPGKAPKLLMYRMSNLASGVPSRFSGSGSGTEFTLTISSLQPDDFATYYCMQHLEYPFTFGQGTKVEVKR
On to B1, for which the binding entry in experiment [1] and in experiment [2] was “binds” throughout.

B2: gL1gH1, CDR-grafted CTMO1 antibody (plasmids pAL47, pAL51) (antibody, V domains shown)
VH: B1 VH with I48M, A68V, L70I
VL: B1 VL
As to B2, the binding result in experiment [1] is “binds”.

Values taken from patent US6506881B1, “Anti-HMFG antibodies and processes for their production” (Celltech R&D Limited, priority 1991, dated 2003).
